The exact form of at least one protein or probe is not confirmed. Weaker means in comparison with the reference protein, sequence or condition of that experiment. At least one verdict was read from the data and is not stated in words by the source.
What was measured:
Mcm467 = assay: double filter binding; details: 150 nM helicase hexamer, 4 nM ssDNA, 20 min inhibitor preincubation at 37 C, label: 5'-32P, single-stranded DNA
Mcm2-7 = assay: double filter binding; details: 150 nM helicase hexamer, 4 nM ssDNA, 20 min inhibitor preincubation at 37 C, label: 5'-32P, single-stranded DNA
[1] = no inhibitor control (1% DMSO), 150 nM hexamer

Measured: binding result

TGTCTAATCCCGAAAGGCCCTGCCACTGAAATCAACACCTAAAGCATTGA [oligo 826]
binds: Mcm467; [1] | Mcm2-7; [1]
binds more weakly: Mcm467; 1 mM MAL2-11b | Mcm467; 1 mM NEM | Mcm467; 1 mM Nbf | Mcm2-7; 1 mM MAL2-11b | Mcm2-7; 1 mM NEM | Mcm2-7; 1 mM Nbf
